Assay results from publication PMC11053110.
Positions count from the first letter of the chain named. Results are given in words; binding and its absence hold for the method and conditions named. For some of these results: In cells and extracts the contact can be indirect. Some binding calls cover weakened binding; strength is not graded here.

What was measured:
[1] = target: T1, ectopic WT IRF3 (Supplementary Fig. 13h) (human) (UniProt Q14653); assay: co-IP
T1 sequence: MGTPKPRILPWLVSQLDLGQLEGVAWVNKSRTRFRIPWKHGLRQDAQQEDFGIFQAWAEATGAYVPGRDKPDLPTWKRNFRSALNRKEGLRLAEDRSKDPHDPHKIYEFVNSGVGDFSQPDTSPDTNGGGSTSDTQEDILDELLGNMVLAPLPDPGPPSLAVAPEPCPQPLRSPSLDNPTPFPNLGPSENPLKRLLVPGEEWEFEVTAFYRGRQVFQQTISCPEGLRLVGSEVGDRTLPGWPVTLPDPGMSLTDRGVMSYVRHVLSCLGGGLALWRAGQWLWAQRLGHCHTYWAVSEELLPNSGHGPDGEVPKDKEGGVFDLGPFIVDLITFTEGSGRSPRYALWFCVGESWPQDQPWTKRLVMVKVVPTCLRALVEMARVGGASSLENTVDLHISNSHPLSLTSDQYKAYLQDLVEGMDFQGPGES

[2] = target: T2, ectopic P10A IRF3 (human) (UniProt Q14653); assay: co-IP
T2 sequence: T1 sequence with P10A

[3] = target: T3, Irf3 (wild type, mouse, endogenous) (mouse (endogenous in BMDCs)), P70671; assay: native gel or EMSA; details: remark: other sources report otherwise
T3 chain: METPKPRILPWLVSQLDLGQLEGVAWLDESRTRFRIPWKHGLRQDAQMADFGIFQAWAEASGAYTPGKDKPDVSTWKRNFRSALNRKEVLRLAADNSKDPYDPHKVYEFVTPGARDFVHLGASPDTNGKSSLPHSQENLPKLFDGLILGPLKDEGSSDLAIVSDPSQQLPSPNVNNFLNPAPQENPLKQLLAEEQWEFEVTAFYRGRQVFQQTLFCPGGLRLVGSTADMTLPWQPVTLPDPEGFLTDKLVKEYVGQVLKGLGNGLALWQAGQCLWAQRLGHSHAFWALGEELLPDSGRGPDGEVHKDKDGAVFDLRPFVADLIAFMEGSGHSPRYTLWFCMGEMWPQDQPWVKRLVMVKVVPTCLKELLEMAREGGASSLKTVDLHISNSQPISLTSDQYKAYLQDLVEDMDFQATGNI

[4] = target: Irf3_P10A (mouse, knock-in) (mouse) (UniProt P70671); assay: native gel or EMSA

B1: endogenous TBK1 (enzyme, UniProt Q9UHD2 1-729)
chain: MQSTSNHLWLLSDILGQGATANVFRGRHKKTGDLFAIKVFNNISFLRPVDVQMREFEVLKKLNHKNIVKLFAIEEETTTRHKVLIMEFCPCGSLYTVLEEPSNAYGLPESEFLIVLRDVVGGMNHLRENGIVHRDIKPGNIMRVIGEDGQSVYKLTDFGAARELEDDEQFVSLYGTEEYLHPDMYERAVLRKDHQKKYGATVDLWSIGVTFYHAATGSLPFRPFEGPRRNKEVMYKIITGKPSGAISGVQKAENGPIDWSGDMPVSCSLSRGLQVLLTPVLANILEADQEKCWGFDQFFAETSDILHRMVIHVFSLQQMTAHKIYIHSYNTATIFHELVYKQTKIISSNQELIYEGRRLVLEPGRLAQHFPKTTEENPIFVVSREPLNTIGLIYEKISLPKVHPRYDLDGDASMAKAITGVVCYACRIASTLLLYQELMRKGIRWLIELIKDDYNETVHKKTEVVITLDFCIRNIEKTVKVYEKLMKINLEAAELGEISDIHTKLLRLSSSQGTIETSLQDIDSRLSPGGSLADAWAHQEGTHPKDRNVEKLQVLLNCMTEIYYQFKKDKAERRLAYNEEQIHKFDKQKLYYHATKAMTHFTDECVKKYEAFLNKSEEWIRKMLHLRKQLLSLTNQCFDIEEEVSKYQEYTNELQETLPQKMFTASSGIKHTMTPIYPSSNTLVEMTLGMKKLKEEMEGVVKELAENNHILERFGSLTMDGGLRNVDCL
In the case of B1, the binding [1] is reported as “binds” and the binding [2] is reported as “binds”.

B2: Irf3 (wild type, mouse, endogenous), P70671 1-419 (protein)
chain: T3 chain
In the case of B2, the binding [3] is reported as “binds”.

B3: Irf3_P10A (mouse, knock-in) (protein, UniProt P70671 1-419)
chain: T3 chain with P10A
With B3 the binding [4] was “binds”.
